These are yes or no findings as the source states them, for the method shown. Binding seen in cells or lysates may run through a third protein. Some entries that bind do so weakly or less than the wild type.
What was measured:
[1] = target: Flag-DTL (UniProt Q9NZJ0); experiment: co-IP; HEK293T transfected with Flag-DTL, after IR (Fig. 3D); also after silencing of CUL4A expression (Fig. 3F, binding not affected)
[2] = target: Flag-DTL (UniProt Q9NZJ0); experiment: co-IP; HEK293T transfected with Myc-CUL4A and Flag-DTL (Fig. 3A) or with DTL R171H / DTL R246H as indicated (Fig. 3H)
[3] = target: DTL R171H (UniProt Q9NZJ0); experiment: as above
[4] = target: DTL R246H (UniProt Q9NZJ0); experiment: as above
[5] = target: Flag-DTL (UniProt Q9NZJ0); experiment: co-IP; as the co-IPs of transfected HEK293T cells, but a nuclease (Benzonase) added to the extracted protein lysate to digest DNA; in the presence or absence of DNA damage

Sequences of proteins named here, by UniProt entry; tags and fusion partners are left off. A change or cut given only in a name is not applied to a line headed by its entry.
UniProt Q9NZJ0: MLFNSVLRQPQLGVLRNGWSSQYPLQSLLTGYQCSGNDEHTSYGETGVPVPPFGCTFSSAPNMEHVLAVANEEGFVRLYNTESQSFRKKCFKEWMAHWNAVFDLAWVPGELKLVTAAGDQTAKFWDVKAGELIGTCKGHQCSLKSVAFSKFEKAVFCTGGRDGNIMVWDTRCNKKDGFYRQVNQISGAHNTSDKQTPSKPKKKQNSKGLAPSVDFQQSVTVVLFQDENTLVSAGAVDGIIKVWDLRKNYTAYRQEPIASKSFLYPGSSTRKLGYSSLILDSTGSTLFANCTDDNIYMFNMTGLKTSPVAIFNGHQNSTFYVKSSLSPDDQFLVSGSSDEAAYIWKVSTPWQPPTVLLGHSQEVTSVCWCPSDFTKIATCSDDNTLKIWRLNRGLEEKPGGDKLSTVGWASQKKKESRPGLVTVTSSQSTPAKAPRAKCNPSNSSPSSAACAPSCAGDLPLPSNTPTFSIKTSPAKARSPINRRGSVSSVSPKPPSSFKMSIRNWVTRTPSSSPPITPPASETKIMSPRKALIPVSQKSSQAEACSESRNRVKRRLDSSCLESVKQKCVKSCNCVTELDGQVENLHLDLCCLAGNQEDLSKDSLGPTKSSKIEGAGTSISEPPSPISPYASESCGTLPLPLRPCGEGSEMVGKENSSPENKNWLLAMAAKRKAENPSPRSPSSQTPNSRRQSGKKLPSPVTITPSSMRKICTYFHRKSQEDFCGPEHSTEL
UniProt P78527: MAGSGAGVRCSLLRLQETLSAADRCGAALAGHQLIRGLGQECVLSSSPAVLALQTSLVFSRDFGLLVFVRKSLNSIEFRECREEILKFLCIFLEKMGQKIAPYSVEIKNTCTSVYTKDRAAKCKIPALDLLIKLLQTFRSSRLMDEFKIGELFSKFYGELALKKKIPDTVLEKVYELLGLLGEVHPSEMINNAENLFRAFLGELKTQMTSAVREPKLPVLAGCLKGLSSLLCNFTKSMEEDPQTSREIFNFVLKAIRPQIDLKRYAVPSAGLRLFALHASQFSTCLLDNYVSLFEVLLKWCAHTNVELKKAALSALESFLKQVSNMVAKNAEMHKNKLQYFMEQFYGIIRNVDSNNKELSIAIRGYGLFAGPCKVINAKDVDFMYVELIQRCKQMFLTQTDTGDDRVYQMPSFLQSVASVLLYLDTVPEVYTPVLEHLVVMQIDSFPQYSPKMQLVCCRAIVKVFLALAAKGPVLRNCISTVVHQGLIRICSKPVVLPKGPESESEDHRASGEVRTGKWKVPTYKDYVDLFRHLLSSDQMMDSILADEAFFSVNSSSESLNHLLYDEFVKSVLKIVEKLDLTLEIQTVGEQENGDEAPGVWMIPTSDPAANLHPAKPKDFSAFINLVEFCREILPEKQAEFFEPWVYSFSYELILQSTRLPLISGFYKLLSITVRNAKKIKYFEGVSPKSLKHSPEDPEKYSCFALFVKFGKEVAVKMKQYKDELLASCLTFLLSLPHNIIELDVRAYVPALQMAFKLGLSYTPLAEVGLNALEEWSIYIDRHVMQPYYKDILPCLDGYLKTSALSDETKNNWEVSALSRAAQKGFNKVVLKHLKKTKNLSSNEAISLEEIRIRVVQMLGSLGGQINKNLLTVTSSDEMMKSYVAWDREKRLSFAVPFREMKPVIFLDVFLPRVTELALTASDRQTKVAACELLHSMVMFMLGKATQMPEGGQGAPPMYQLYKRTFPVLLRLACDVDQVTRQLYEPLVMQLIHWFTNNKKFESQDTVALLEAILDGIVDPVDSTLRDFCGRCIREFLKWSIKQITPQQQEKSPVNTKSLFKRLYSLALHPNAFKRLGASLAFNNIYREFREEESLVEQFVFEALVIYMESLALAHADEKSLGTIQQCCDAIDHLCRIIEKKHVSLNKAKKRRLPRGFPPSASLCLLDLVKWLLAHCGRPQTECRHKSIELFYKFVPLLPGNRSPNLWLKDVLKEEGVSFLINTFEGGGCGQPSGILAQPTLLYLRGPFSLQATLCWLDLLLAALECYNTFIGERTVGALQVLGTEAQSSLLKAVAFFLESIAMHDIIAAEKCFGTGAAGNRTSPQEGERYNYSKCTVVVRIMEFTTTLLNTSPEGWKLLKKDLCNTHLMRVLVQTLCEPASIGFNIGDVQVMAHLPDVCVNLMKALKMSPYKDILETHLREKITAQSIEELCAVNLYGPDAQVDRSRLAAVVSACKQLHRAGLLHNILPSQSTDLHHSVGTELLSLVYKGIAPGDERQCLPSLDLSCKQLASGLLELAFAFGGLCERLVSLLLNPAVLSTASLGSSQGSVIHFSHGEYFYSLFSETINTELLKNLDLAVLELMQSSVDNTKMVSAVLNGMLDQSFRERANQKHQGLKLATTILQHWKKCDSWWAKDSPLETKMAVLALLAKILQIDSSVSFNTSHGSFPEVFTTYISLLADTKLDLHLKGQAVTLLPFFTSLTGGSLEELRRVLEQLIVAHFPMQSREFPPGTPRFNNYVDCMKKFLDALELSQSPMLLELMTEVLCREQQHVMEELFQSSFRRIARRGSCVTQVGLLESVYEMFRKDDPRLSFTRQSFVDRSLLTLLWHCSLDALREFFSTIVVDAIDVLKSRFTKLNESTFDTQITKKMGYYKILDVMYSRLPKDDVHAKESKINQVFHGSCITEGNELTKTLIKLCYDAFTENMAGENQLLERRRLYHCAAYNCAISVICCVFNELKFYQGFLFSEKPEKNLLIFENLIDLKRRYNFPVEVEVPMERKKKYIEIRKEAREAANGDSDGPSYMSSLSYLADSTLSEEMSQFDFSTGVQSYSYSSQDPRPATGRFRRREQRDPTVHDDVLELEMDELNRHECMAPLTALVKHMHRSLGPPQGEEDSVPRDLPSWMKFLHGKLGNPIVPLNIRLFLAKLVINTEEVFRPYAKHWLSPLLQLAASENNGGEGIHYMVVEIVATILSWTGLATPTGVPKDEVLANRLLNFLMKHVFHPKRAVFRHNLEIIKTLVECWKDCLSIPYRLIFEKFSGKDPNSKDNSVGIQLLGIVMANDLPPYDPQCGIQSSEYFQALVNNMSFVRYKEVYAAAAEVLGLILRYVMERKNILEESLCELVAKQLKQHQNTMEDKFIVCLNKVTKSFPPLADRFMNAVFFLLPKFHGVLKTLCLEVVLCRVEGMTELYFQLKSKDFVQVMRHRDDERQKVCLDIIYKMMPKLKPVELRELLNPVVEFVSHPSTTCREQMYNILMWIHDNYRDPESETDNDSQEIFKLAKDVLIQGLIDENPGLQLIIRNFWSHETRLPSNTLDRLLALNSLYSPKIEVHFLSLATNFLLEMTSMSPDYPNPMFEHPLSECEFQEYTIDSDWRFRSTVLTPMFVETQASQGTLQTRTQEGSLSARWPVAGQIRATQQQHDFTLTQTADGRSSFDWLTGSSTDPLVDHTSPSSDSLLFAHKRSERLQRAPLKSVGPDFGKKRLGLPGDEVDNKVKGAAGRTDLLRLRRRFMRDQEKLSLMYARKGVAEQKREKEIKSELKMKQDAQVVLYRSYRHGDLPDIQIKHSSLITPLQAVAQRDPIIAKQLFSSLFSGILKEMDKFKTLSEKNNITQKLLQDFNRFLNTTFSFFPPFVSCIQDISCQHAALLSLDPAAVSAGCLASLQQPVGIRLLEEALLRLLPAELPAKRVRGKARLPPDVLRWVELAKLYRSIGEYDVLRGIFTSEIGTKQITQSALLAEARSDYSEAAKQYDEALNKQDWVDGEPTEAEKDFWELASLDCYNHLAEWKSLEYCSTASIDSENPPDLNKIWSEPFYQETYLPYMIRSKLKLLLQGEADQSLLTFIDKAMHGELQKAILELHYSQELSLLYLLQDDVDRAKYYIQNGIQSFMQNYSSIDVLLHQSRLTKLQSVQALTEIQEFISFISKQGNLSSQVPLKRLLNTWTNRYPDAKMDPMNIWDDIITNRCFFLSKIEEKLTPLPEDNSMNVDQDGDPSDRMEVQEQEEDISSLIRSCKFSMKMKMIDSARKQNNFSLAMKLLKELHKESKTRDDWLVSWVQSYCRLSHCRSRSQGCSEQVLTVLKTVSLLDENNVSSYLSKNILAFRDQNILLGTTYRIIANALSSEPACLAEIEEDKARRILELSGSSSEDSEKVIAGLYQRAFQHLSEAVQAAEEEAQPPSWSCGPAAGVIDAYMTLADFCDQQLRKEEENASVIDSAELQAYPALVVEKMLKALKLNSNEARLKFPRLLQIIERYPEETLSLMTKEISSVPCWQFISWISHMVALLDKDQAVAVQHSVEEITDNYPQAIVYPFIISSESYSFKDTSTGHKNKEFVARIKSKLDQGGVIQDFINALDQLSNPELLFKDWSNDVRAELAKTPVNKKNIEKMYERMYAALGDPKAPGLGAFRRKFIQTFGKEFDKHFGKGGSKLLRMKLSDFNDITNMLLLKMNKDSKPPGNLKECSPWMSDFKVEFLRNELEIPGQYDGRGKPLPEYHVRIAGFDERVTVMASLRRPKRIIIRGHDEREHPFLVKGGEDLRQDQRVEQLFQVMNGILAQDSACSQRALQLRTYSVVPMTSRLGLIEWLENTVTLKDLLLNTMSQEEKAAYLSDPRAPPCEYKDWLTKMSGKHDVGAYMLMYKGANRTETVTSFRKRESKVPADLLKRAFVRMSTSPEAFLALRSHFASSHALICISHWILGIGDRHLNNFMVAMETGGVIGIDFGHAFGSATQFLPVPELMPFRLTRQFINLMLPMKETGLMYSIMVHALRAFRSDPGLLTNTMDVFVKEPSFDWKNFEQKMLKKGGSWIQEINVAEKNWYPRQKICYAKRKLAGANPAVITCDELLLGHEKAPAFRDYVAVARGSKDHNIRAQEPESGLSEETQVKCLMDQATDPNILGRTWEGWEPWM
UniProt Q13619: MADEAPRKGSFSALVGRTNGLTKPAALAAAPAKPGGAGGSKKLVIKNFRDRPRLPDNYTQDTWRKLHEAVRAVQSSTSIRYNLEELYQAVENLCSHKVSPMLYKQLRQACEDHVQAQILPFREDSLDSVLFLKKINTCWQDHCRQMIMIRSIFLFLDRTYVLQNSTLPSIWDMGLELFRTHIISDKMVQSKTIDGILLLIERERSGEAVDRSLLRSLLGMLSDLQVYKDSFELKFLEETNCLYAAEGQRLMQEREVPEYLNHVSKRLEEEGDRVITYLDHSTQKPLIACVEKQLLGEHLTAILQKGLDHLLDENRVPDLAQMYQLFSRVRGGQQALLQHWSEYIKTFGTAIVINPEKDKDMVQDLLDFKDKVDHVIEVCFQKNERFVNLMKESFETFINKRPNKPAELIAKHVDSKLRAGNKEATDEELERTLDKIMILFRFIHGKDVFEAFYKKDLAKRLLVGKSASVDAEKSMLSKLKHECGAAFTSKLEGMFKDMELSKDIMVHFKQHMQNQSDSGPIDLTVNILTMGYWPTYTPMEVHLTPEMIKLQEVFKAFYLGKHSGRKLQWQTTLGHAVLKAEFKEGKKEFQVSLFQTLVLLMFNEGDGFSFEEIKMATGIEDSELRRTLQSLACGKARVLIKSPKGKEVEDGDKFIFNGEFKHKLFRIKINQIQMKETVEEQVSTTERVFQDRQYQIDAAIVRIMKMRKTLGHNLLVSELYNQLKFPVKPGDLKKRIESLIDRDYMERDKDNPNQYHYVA

Measured: binding

DNA-PKcs (from UniProt P78527 1-4128)
binds: all assays above

Myc-CUL4A (from UniProt Q13619 1-759)
binds: [2] | [3]
